Measurements from patent publication US7429660B2, “ATM inhibitors” (Kudos Pharmaceuticals Limited, priority 2003, dated 2008).
Some entries share one result that the patent states for a list of compounds.

By UniProt entry, the sequences of proteins in these tests, tags left out. Where a name states a change or a piece, a line headed by the entry shows the natural chain unless it says otherwise.
UniProt Q13315: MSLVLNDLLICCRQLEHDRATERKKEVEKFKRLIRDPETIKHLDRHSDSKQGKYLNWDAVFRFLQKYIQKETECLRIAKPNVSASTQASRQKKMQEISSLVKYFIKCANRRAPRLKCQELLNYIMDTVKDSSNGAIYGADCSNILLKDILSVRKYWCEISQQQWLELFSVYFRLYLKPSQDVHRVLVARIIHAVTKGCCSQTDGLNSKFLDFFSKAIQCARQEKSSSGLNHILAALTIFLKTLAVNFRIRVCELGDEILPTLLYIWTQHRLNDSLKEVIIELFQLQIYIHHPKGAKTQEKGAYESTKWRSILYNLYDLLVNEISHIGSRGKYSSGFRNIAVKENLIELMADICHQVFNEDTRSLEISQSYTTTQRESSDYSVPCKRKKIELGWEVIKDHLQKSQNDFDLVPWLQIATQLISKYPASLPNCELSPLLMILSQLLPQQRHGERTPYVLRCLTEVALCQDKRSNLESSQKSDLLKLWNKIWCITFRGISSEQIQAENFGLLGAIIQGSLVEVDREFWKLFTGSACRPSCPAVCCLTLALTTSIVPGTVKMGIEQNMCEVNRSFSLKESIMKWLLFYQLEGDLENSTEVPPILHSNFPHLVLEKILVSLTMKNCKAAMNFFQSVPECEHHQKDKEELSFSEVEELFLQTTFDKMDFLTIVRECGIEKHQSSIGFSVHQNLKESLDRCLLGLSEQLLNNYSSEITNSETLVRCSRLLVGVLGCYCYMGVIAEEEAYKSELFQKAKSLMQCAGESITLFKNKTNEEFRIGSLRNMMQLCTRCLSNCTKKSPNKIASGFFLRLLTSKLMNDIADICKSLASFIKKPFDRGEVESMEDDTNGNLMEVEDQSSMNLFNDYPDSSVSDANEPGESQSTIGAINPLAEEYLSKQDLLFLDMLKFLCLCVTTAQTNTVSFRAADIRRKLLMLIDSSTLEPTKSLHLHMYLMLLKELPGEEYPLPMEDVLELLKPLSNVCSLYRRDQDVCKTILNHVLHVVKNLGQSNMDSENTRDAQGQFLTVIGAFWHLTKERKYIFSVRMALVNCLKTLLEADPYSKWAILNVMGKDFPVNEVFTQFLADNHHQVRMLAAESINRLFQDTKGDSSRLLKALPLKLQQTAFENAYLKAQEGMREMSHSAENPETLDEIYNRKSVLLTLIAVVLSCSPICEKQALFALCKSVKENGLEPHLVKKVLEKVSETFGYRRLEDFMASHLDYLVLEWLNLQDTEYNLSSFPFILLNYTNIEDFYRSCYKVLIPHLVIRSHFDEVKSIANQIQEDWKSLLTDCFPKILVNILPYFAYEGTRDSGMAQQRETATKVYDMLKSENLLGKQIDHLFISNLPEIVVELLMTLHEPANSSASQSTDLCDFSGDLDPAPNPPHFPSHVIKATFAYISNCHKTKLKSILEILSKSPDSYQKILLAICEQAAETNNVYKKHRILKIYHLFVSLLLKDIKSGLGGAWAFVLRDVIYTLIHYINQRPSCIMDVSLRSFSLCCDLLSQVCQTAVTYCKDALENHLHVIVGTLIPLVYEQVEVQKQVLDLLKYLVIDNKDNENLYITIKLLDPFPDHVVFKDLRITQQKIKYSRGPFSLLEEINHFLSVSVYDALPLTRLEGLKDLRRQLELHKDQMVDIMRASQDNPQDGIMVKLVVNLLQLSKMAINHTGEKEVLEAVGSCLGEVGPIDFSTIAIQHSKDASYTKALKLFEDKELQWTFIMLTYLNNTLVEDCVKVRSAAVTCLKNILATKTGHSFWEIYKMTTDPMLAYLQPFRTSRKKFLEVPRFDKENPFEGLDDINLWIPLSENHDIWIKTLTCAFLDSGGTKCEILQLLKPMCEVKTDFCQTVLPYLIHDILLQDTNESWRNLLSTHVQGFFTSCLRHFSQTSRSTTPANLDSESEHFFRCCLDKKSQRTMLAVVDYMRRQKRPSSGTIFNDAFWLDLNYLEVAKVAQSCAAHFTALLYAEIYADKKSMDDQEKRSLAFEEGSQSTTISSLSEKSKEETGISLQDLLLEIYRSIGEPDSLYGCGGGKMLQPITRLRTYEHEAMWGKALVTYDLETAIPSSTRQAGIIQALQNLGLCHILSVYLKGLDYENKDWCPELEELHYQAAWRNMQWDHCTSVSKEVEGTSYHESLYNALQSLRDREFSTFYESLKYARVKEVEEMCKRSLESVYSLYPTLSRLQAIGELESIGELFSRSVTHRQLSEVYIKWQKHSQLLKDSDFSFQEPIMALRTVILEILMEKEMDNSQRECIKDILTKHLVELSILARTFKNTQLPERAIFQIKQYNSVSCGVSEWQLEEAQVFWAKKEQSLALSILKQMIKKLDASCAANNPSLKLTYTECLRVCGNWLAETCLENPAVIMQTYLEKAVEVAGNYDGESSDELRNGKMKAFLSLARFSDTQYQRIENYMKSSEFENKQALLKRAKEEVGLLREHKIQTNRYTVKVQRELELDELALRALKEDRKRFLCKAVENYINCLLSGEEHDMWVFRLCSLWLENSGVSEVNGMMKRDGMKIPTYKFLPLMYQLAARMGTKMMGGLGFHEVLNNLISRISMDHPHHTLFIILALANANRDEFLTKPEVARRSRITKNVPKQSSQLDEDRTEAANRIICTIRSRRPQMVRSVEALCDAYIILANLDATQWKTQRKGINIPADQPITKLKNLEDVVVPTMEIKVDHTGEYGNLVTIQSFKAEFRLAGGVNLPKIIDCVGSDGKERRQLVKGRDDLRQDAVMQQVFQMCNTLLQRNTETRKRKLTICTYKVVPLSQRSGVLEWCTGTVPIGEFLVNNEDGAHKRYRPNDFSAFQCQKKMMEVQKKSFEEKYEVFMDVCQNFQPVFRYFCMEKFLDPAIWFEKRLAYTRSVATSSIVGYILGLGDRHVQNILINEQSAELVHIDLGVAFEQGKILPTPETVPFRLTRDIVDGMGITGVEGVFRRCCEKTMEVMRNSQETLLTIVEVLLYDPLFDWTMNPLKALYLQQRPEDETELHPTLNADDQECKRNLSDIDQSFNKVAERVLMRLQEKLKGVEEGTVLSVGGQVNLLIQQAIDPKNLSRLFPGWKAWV

target: T1, ATM protein immunoprecipitated from HeLa cell nuclear extract (Homo sapiens, UniProt Q13315); test: In vitro ATM inhibition assay (phosphorylation of GSTp53N66 on serine 15, chemiluminescent detection); assay type: biochemical; details: list of compounds with IC50 less than 200 nM; tested normally from 100 μM down to 0.1 nM; read-out: IC50 values (the concentration at which 50% of the enzyme activity is inhibited), ATM inhibition
T1 construct: ATM protein was immunoprecipitated from HeLa cell nuclear extract; endogenous in cells; host or cells: HeLa cell nuclear extract (immunoprecipitated with rabbit polyclonal anti-ATM antiserum)
Procedure: In order to assess the inhibitory action of the compounds against ATM in vitro, the following assay was used to determine IC50 values. ATM protein was immunoprecipitated from HeLa cell nuclear extract using rabbit polyclonal anti-sera raised to the C-terminal ˜500 amino-acid residues of the human ATM protein. […] 10 μl of immunoprecipitated ATM in Buffer C (50 mM Hepes, pH 7.4, 6 mM MgCl2, 150 mM NaCl, 0.1 mM sodium orthovanadate, 4 mM MnCl2, 0.1 mM dithiothreitol, 10% glycerol) was added to 32.5 μl of buffer C containing 1 μg of the ATM substrate GSTp53N66 in a V-bottomed 96 well polypropylene plate. The GSTp53N66 substrate is the amino terminal 66 amino acid residues of human wild type p53 fused to glutathione S-transferase. […] Varying concentrations of inhibitor were then added. […] After 10 minutes of incubation at 37° C., the reactions were initiated by the addition of 5 μl of 500 μM Na-ATP. After 1 hour with shaking at 37° C., 150 μl of phosphate buffered saline (PBS) was added to the reaction and the plate centrifuged at 1500 rpm for 10 minutes. 5 μl of the reaction was then transferred to a 96 well opaque white plate containing 45 μl of PBS to allow the GSTp53N66 substrate to bind to the plate wells. The plate was covered and incubated at room temperature for 1 hour with shaking before discarding the contents. The plate wells were washed twice by the addition of PBS prior to the addition of 3% (w/v) bovine serum albumin (BSA) in PBS. The plate was incubated at room temperature for 1 hour with shaking before discarding the contents and washing twice with PBS. To the wells, 50 μl of a 1:10,000 dilution of primary phosphoserine-15 antibody (Cell Signaling Technology, #9284L) in 3% BSA/PBS was added to detect the phosphorylation event on the serine 15 residue of p53 elicited by the ATM kinase. […] The wells were then washed four times with PBS before the addition of chemiluminescence reagent (NEN Renaissance, NEL105). The plate was then shaken briefly, covered with a transparent plate seal and transferred to a TopCount NXT for chemiluminescent counting. Counts per second, following a one second counting time, were recorded for each reaction.
The enzyme activity for each compound is then calculated using the following equation:
[formula] Results In vitro ATM assays
Compounds were assayed for ATM inhibition activity using the method described above. […] These are determined over a range of different concentrations, normally from 100 μM down to 0.1 nM. Such IC50 values are used as comparative values to identify increased compound potencies.

Compound	IC50
O=c1cc(-c2cccc3c2Sc2ccccc2N3CCCN2CCCCC2)oc(N2CCOCC2)c1 [Compound 256]	< 0.2 µM

same assay, conditions: list of compounds with IC50 less than 10 μM, in addition to those below 200 nM; read-out: IC50 values (the concentration at which 50% of the enzyme activity is inhibited), ATM inhibition

Compound	IC50
Cc1ccccc1N1CCN(C(=O)c2ccc3c(c2)Sc2cccc(-c4cc(=O)cc(N5CCOCC5)o4)c2S3)CC1 [Compound 7]	< 10 µM
O=C(c1ccc2c(c1)Sc1cccc(-c3cc(=O)cc(N4CCOCC4)o3)c1S2)N1CCN(CCOCCO)CC1 [Compound 10]	< 10 µM
O=C(CN1CCN(C(=O)c2ccc3c(c2)Sc2cccc(-c4cc(=O)cc(N5CCOCC5)o4)c2S3)CC1)N1CCOCC1 [Compound 20]	< 10 µM
C[C@@H]1CN(CCCN2c3ccccc3Sc3c(-c4cc(=O)cc(N5CCOCC5)o4)cccc32)C[C@H](C)O1 [Compound 258]	< 10 µM
CCN(CC)CCNCCCN1c2ccccc2Sc2c(-c3cc(=O)cc(N4CCOCC4)o3)cccc21 [Compound 276]	< 10 µM
CC(C)N(CCNCCCN1c2ccccc2Sc2c(-c3cc(=O)cc(N4CCOCC4)o3)cccc21)C(C)C [Compound 278]	< 10 µM
CC(=O)N1CCN(CCCN2c3ccccc3Sc3c(-c4cc(=O)cc(N5CCOCC5)o4)cccc32)CC1 [Compound 293]	< 10 µM
O=c1cc(-c2cccc3c2Sc2ccccc2N3CCCNC2CCCCC2CO)oc(N2CCOCC2)c1 (stereo not shown) [Compound 308]	< 10 µM
CCOC(=O)C1CCCCC1NCCCN1c2ccccc2Sc2c(-c3cc(=O)cc(N4CCOCC4)o3)cccc21 (stereo not shown) [Compound 310]	< 10 µM
O=c1cc(-c2cccc3c2Sc2ccccc2N3CCCN2CCC(CO)CC2)oc(N2CCOCC2)c1 [Compound 313]	< 10 µM
O=c1cc(-c2cccc3c2Sc2ccccc2N3CCCN2CCC(O)CC2)oc(N2CCOCC2)c1 [Compound 316]	< 10 µM
CC(C)(C)OC(=O)NCCCCCNCCCN1c2ccccc2Sc2c(-c3cc(=O)cc(N4CCOCC4)o3)cccc21 [Compound 318]	< 10 µM
COCCN(CCCN1c2ccccc2Sc2c(-c3cc(=O)cc(N4CCOCC4)o3)cccc21)CCOC [Compound 320]	< 10 µM
O=c1cc(-c2cccc3c2Sc2ccccc2N3CCCNC(CO)(CO)CO)oc(N2CCOCC2)c1 [Compound 322]	< 10 µM
O=c1cc(-c2cccc3c2Sc2ccccc2N3CCCNC(CO)Cc2ccccc2)oc(N2CCOCC2)c1 (stereo not shown) [Compound 325]	< 10 µM
O=c1cc(-c2cccc3c2Sc2ccc(OCCNCCN4CCCCC4)cc2S3)oc(N2CCOCC2)c1 [Compound 358]	< 10 µM
O=c1cc(-c2cccc3c2Sc2ccc(OCCN4CCN(c5ncccn5)CC4)cc2S3)oc(N2CCOCC2)c1 [Compound 362]	< 10 µM

Compound	IC50
O=c1cc(-c2cccc3c2Sc2ccc(OCCN4CCN(CCO)CC4)cc2S3)oc(N2CCOCC2)c1 [Compound 363]	< 10 µM
O=c1cc(-c2cccc3c2Sc2ccc(OCCN4CCCCC4)cc2S3)oc(N2CCOCC2)c1 [Compound 368]	< 10 µM
CN1CCCN(CCOc2ccc3c(c2)Sc2cccc(-c4cc(=O)cc(N5CCOCC5)o4)c2S3)CC1 [Compound 371]	< 10 µM
O=c1cc(-c2cccc3c2Sc2ccc(OCCN(CCO)CCO)cc2S3)oc(N2CCOCC2)c1 [Compound 373]	< 10 µM
COCCN(CCOC)CCOc1ccc2c(c1)Sc1cccc(-c3cc(=O)cc(N4CCOCC4)o3)c1S2 [Compound 374]	< 10 µM
O=c1cc(-c2cccc3c2Sc2ccc(OCCNCC4CCCO4)cc2S3)oc(N2CCOCC2)c1 (stereo not shown) [Compound 380]	< 10 µM
CSCCNCCOc1ccc2c(c1)Sc1cccc(-c3cc(=O)cc(N4CCOCC4)o3)c1S2 [Compound 384]	< 10 µM
COCCNCCOc1ccc2c(c1)Sc1cccc(-c3cc(=O)cc(N4CCOCC4)o3)c1S2 [Compound 386]	< 10 µM
O=c1cc(-c2cccc3c2Sc2ccc(OCCNCCN4CCOCC4)cc2S3)oc(N2CCOCC2)c1 [Compound 388]	< 10 µM
O=c1cc(-c2cccc3c2Sc2ccc(OCCNCCCN4CCOCC4)cc2S3)oc(N2CCOCC2)c1 [Compound 389]	< 10 µM
COC(=O)[C@H](CO)NCCOc1ccc2c(c1)Sc1cccc(-c3cc(=O)cc(N4CCOCC4)o3)c1S2 [Compound 400]	< 10 µM
O=c1cc(-c2cccc3c2Sc2ccc(OCCN4CCN(CCOCCO)CC4)cc2S3)oc(N2CCOCC2)c1 [Compound 402]	< 10 µM
O=C(COc1ccc2c(c1)Sc1cccc(-c3cc(=O)cc(N4CCOCC4)o3)c1S2)NCCCN1CCOCC1 [Compound 408]	< 10 µM
CCOC(=O)CC1C(=O)NCCN1C(=O)COc1ccc2c(c1)Sc1cccc(-c3cc(=O)cc(N4CCOCC4)o3)c1S2 (stereo not shown) [Compound 412]	< 10 µM
CCOC(=O)C1CCCN(C(=O)COc2ccc3c(c2)Sc2cccc(-c4cc(=O)cc(N5CCOCC5)o4)c2S3)C1 (stereo not shown) [Compound 413]	< 10 µM
CCOC(=O)C1CCN(C(=O)COc2ccc3c(c2)Sc2cccc(-c4cc(=O)cc(N5CCOCC5)o4)c2S3)CC1 [Compound 415]	< 10 µM
CCOC(=O)C(NC(=O)COc1ccc2c(c1)Sc1cccc(-c3cc(=O)cc(N4CCOCC4)o3)c1S2)c1ccccc1 (stereo not shown) [Compound 421]	< 10 µM

Results, then the compound that gave them:

IC50	Compound
< 10 µM	Cc1ccc(N2CCN(C(=O)c3ccc4c(c3)Sc3cccc(-c5cc(=O)cc(N6CCOCC6)o5)c3S4)CC2)c(C)c1 [Compound 12]
< 10 µM	O=c1cc(-c2cccc3c2Sc2ccccc2N3CCCN2CCCCC2)oc(N2CCOCC2)c1 [Compound 256]
< 10 µM	O=c1cc(-c2cccc3c2Sc2ccccc2N3CCCNCCN2CCCCC2)oc(N2CCOCC2)c1 [Compound 263]
< 10 µM	CN1CCCC1CCNCCCN1c2ccccc2Sc2c(-c3cc(=O)cc(N4CCOCC4)o3)cccc21 (stereo not shown) [Compound 265]
< 10 µM	CCN(CCCN1c2ccccc2Sc2c(-c3cc(=O)cc(N4CCOCC4)o3)cccc21)Cc1ccncc1 [Compound 268]
< 10 µM	CN(CCCN1c2ccccc2Sc2c(-c3cc(=O)cc(N4CCOCC4)o3)cccc21)CCc1ccccn1 [Compound 269]
< 10 µM	CC(C)(C)OC(=O)N1CCN(CCNCCCN2c3ccccc3Sc3c(-c4cc(=O)cc(N5CCOCC5)o4)cccc32)CC1 [Compound 275]
< 10 µM	CN(C)CCN(C)CCCN1c2ccccc2Sc2c(-c3cc(=O)cc(N4CCOCC4)o3)cccc21 [Compound 279]
< 10 µM	O=c1cc(-c2cccc3c2Sc2ccccc2N3CCCN2CCCC(CO)C2)oc(N2CCOCC2)c1 (stereo not shown) [Compound 314]
< 10 µM	NC(=O)C1CCN(CCCN2c3ccccc3Sc3c(-c4cc(=O)cc(N5CCOCC5)o4)cccc32)CC1 [Compound 317]
< 10 µM	COC(=O)[C@@H]1C[C@@H](O)CN1CCCN1c2ccccc2Sc2c(-c3cc(=O)cc(N4CCOCC4)o3)cccc21 [Compound 319]
< 10 µM	O=c1cc(-c2cccc3c2Sc2ccccc2N3CCCN2CCCNCC2)oc(N2CCOCC2)c1 [Compound 332]
< 10 µM	CCN1CCN(CCOc2ccc3c(c2)Sc2cccc(-c4cc(=O)cc(N5CCOCC5)o4)c2S3)CC1 [Compound 365]
< 10 µM	O=c1cc(-c2cccc3c2Sc2ccc(OCCN4CCNCC4)cc2S3)oc(N2CCOCC2)c1 [Compound 370]
< 10 µM	O=c1cc(-c2cccc3c2Sc2ccc(OCCN4CCCNCC4)cc2S3)oc(N2CCOCC2)c1 [Compound 372]
< 10 µM	O=c1cc(-c2cccc3c2Sc2ccc(OCCN4CCCCCC4)cc2S3)oc(N2CCOCC2)c1 [Compound 375]
< 10 µM	O=c1cc(-c2cccc3c2Sc2ccc(OCCNC4CCN(Cc5ccccc5)CC4)cc2S3)oc(N2CCOCC2)c1 [Compound 377]
< 10 µM	O=c1cc(-c2cccc3c2Sc2ccc(OCCNCc4ccco4)cc2S3)oc(N2CCOCC2)c1 [Compound 385]
< 10 µM	O=c1cc(-c2cccc3c2Sc2ccc(OCCNC(CO)(CO)CO)cc2S3)oc(N2CCOCC2)c1 [Compound 390]
< 10 µM	O=c1cc(-c2cccc3c2Sc2ccc(OCCNCCc4cnc[nH]4)cc2S3)oc(N2CCOCC2)c1 [Compound 391]
< 10 µM	CCOC(=O)CC1C(=O)NCCN1CCOc1ccc2c(c1)Sc1cccc(-c3cc(=O)cc(N4CCOCC4)o3)c1S2 (stereo not shown) [Compound 392]
< 10 µM	CC(C)(C)OC(=O)CNC(=O)COc1ccc2c(c1)Sc1cccc(-c3cc(=O)cc(N4CCOCC4)o3)c1S2 [Compound 406]
< 10 µM	COC(=O)[C@@H]1C[C@@H](O)CN1C(=O)COc1ccc2c(c1)Sc1cccc(-c3cc(=O)cc(N4CCOCC4)o3)c1S2 [Compound 422]
